PubChem BioAssay AID1159578, Peter MacCallum Cancer Centre, 2015
In all, the deposit lists about 18,000 reagents; this is a part drawn at random. Over the whole deposit, about 1,030 (5.7%) are marked active. 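Inactive calls also include pools with fewer than 3300 nuclei, whose migration was not assessed.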 Raw values are not corrected between plates. Entries without a mark were called inactive. Not all columns of the deposit are shown. Reagent sequences are not shown.

Screen: 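Knock-downs that alter how fast lymphatic endothelial cells migrate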 (primary screen)
Cell system: human lymphatic endothelial cells
Knock-down reagent: siRNA pool against human genes, 40 nM
Duration: 48 h after transfection
Read-out: 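Cells stained with dye and imaged after a scratch; covered wound area and nuclei counted, duplicates averaged, migration set against mock wells and turned into a robust z-score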
Scale: migration robust z-score: higher = faster migration into the scratch; nuclei per well: higher = more cells in the well
Call rule: 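Migration changed when robust z exceeds 2 or falls below -2 and mean nuclei number is at least 3300; otherwise not called changed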
Calls: active = migration changed; inactive = no migration change, or too few cells

ACTL10 (actin like 10)
- migration robust z-score: -0.49
- migration class with cell-count check: migration z between -2 and 2; enough cells
- nuclei per well, duplicate mean: 4978

DRD5 (dopamine receptor D5)
- migration robust z-score: 1.42
- migration class with cell-count check: migration z between -2 and 2; enough cells
- nuclei per well, duplicate mean: 5913

MC2R (melanocortin 2 receptor)
- migration robust z-score: -0.05
- migration class with cell-count check: migration z between -2 and 2; enough cells
- nuclei per well, duplicate mean: 5728

CCDC51 (coiled-coil domain containing 51)
- migration robust z-score: -0.07
- migration class with cell-count check: migration z between -2 and 2; enough cells
- nuclei per well, duplicate mean: 6054

SNX15 (sorting nexin 15)
- migration robust z-score: 0.46
- migration class with cell-count check: migration z between -2 and 2; enough cells
- nuclei per well, duplicate mean: 5342

CPM (carboxypeptidase M)
- migration robust z-score: -0.1
- migration class with cell-count check: migration z between -2 and 2; enough cells
- nuclei per well, duplicate mean: 5256

CCT5 (chaperonin containing TCP1 subunit 5)
- migration robust z-score: -1.74
- migration class with cell-count check: migration z between -2 and 2; enough cells
- nuclei per well, duplicate mean: 6059

UCHL1 (ubiquitin C-terminal hydrolase L1)
- migration robust z-score: -0.13
- migration class with cell-count check: migration z between -2 and 2; enough cells
- nuclei per well, duplicate mean: 5288

F13B (coagulation factor XIII B chain)
- migration robust z-score: 0.39
- migration class with cell-count check: migration z between -2 and 2; enough cells
- nuclei per well, duplicate mean: 5492

AGPAT5 (1-acylglycerol-3-phosphate O-acyltransferase 5)
- migration robust z-score: 0.62
- migration class with cell-count check: migration z between -2 and 2; enough cells
- nuclei per well, duplicate mean: 5306

ZBTB32 (zinc finger and BTB domain containing 32)
- migration robust z-score: 0.31
- migration class with cell-count check: migration z between -2 and 2; enough cells
- nuclei per well, duplicate mean: 5515

PRDM5 (PR/SET domain 5)
- migration robust z-score: 1.33
- migration class with cell-count check: migration z between -2 and 2; enough cells
- nuclei per well, duplicate mean: 6532

NME1-NME2 (NME1-NME2 readthrough)
- migration robust z-score: 0.68
- migration class with cell-count check: migration z between -2 and 2; enough cells
- nuclei per well, duplicate mean: 5800

LYRM9 (LYR motif containing 9)
- migration robust z-score: 0.54
- migration class with cell-count check: migration z between -2 and 2; enough cells
- nuclei per well, duplicate mean: 3961

ST3GAL4 (ST3 beta-galactoside alpha-2,3-sialyltransferase 4)
- migration robust z-score: -0.21
- migration class with cell-count check: migration z between -2 and 2; enough cells
- nuclei per well, duplicate mean: 5404

TBX20 (T-box transcription factor 20)
- migration robust z-score: -0.54
- migration class with cell-count check: migration z between -2 and 2; enough cells
- nuclei per well, duplicate mean: 5228

RPS6 (ribosomal protein S6)
- migration robust z-score: 0.46
- migration class with cell-count check: migration z between -2 and 2; enough cells
- nuclei per well, duplicate mean: 3712

TMPRSS11B (transmembrane serine protease 11B)
- migration robust z-score: 0.99
- migration class with cell-count check: migration z between -2 and 2; enough cells
- nuclei per well, duplicate mean: 6253

OR10C1 (olfactory receptor family 10 subfamily C member 1)
- migration robust z-score: 0.34
- migration class with cell-count check: migration z between -2 and 2; enough cells
- nuclei per well, duplicate mean: 4904

FSTL5 (follistatin like 5)
- migration robust z-score: 0.68
- migration class with cell-count check: migration z between -2 and 2; enough cells
- nuclei per well, duplicate mean: 5716

CABLES2 (Cdk5 and Abl enzyme substrate 2)
- migration robust z-score: 0.35
- migration class with cell-count check: migration z between -2 and 2; enough cells
- nuclei per well, duplicate mean: 6609

Copied from the entries so far, 2 entries:
DRD5 (dopamine receptor D5)
- migration robust z-score: 1.42
- migration class with cell-count check: migration z between -2 and 2; enough cells
- nuclei per well, duplicate mean: 5913

MC2R (melanocortin 2 receptor)
- migration robust z-score: -0.05
- migration class with cell-count check: migration z between -2 and 2; enough cells
- nuclei per well, duplicate mean: 5728
